These are yes or no findings as the source states them, for the method shown. Binding seen in cells or lysates may run through a third protein. Some entries that bind do so weakly or less than the wild type.
Target: cyclin-dependent kinase 5 (CDK5), endogenous in mouse striatum (mouse (endogenous in striatum)) (UniProt P49615)
Experiment: co-IP; striatum lysate precipitated with an anti-CDK5 antibody (IgG as control), blot probed with an anti-BK channel antibody; endogenous proteins

Protein sequences, listed by entry. Tags and fused reporters are not part of them.
UniProt Q08460: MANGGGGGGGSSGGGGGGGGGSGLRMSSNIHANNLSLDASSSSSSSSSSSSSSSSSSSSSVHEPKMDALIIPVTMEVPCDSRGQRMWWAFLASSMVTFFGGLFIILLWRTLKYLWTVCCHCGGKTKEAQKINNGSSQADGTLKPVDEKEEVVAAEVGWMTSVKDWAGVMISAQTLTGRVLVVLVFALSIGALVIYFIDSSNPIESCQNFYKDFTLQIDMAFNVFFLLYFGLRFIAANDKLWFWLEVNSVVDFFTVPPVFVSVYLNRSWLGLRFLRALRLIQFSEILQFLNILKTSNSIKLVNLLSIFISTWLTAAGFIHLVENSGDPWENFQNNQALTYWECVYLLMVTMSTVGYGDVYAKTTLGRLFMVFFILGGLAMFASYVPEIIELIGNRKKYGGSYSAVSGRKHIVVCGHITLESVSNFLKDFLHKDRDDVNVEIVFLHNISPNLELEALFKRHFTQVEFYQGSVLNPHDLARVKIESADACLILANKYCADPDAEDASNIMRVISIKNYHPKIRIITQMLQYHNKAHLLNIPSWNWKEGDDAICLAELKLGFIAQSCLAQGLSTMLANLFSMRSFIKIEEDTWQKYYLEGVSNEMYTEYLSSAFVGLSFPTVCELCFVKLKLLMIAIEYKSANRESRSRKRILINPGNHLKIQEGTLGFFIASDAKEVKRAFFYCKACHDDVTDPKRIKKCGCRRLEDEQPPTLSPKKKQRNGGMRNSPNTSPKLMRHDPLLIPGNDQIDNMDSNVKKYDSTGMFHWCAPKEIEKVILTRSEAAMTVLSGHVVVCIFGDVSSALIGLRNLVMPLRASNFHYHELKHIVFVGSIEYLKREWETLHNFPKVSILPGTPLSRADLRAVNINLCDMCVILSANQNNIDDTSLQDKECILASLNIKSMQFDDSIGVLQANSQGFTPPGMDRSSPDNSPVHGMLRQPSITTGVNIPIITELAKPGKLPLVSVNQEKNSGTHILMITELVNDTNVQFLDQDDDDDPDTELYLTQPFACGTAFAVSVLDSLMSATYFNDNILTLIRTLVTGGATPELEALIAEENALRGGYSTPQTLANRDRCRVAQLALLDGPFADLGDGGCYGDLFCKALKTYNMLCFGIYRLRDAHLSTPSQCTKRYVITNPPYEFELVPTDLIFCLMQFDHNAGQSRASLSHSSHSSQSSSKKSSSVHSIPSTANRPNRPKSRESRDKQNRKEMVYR

binding: binds
Substance: large-conductance Ca2+-activated K+ channel (BK channel), endogenous in mouse striatum (from UniProt Q08460 1-1209)

— paper PMC10202382
